PubChem BioAssay AID1259424 – University of Nebraska Medical Center – 2018
Here is one part, drawn at random, of about 14,000 reagents. 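Higher correlation or smaller distance means closer resemblance to KSR1 loss; control wells, including KSR1 knockdowns, recur on many plates.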 The numbers tell different reagents against one gene apart. Further read-outs or replicates are left out here. No sequences are given here. The record does not give: the time to read-out.

Test: 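Find knockdowns that reproduce the expression shifts seen after KSR1 loss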 (primary screen)
Cells: human HCT116 colon cancer cells
Reagent: siRNA pool against human genes, 50 nM
Measurement: 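Log2 levels of six mRNAs (branched-DNA multiplex), adjusted by two reference genes and the non-targeting median, then scored against the average KSR1 knockdown pattern as Pearson r and euclidean distance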
Scale: mean correlation with KSR1 profile: higher = expression change more like KSR1 knockdown

mean correlation with KSR1 profile, by gene knocked down and reagent
ADA2 (GeneID 51816): #1 0.451
VPS37B (GeneID 79720): #1 -0.452
MFAP1 (GeneID 4236): #1 -0.41
UGGT2 (GeneID 55757): #1 0.073
NSG1 (GeneID 27065): #1 -0.682
ABCC5 (GeneID 10057): #1 -0.343
EBAG9 (GeneID 9166): #1 -0.386
KIAA0319L (GeneID 79932): #1 0.0298
RFPL1 (GeneID 5988): #1 -0.487
MARCHF5 (GeneID 54708): #1 0.45
TRAPPC10 (GeneID 7109): #1 -0.097
TCAP (GeneID 8557): #1 -0.417
PHLDA3 (GeneID 23612): #1 0.221
UBE2N (GeneID 7334): #1 -0.264
HMX1 (GeneID 3166): #1 0.054
DNAJA2 (GeneID 10294): #1 0.141
CHFR (GeneID 55743): #1 -0.148
NPHS2 (GeneID 7827): #1 0.66
ACADL (GeneID 33): #1 -0.317
ABHD2 (GeneID 11057): #1 0.449
KRTAP5-8 (GeneID 57830): #1 -0.314
DNAJB9 (GeneID 4189): #1 0.115
MAGI1 (GeneID 9223): #1 0.78
ASPH (GeneID 444): #1 0.0657
MRPL51 (GeneID 51258): #1 -0.307
TPM1 (GeneID 7168): #1 -0.381
RNF213 (GeneID 57674): #1 -0.556; #2 -0.705
SEC22A (GeneID 26984): #1 0.171
CSHL1 (GeneID 1444): #1 -0.736
KRT10 (GeneID 3858): #1 -0.29
PEMT (GeneID 10400): #1 -0.693
MS4A5 (GeneID 64232): #1 0.366
MYL2 (GeneID 4633): #1 -0.715
PPP2CB (GeneID 5516): #1 0.216
BTG1 (GeneID 694): #1 0.592
KRABD1 (GeneID 100506243): #1 0.135
MAFB (GeneID 9935): #1 0.758
USP2 (GeneID 9099): #1 -0.443
PSMC2 (GeneID 5701): #1 -0.622
LRRFIP1 (GeneID 9208): #1 0.0179
PDCD11 (GeneID 22984): #1 0.416
RPL13A (GeneID 23521): #1 -0.0964
FAM120B (GeneID 84498): #1 0.0788
CRCT1 (GeneID 54544): #1 -0.722
ORMDL1 (GeneID 94101): #1 -0.314
HSPA1A (GeneID 3303): #1 -0.298
ZNF821 (GeneID 55565): #1 -0.2
ERCC6 (GeneID 2074): #1 0.5
JAKMIP2 (GeneID 9832): #1 0.134
ISL2 (GeneID 64843): #1 -0.911
KRT6A (GeneID 3853): #1 -0.0533; #2 -0.0999
SPSB3 (GeneID 90864): #1 0.545
PLEKHG4 (GeneID 25894): #1 -0.159
BRD7 (GeneID 29117): #1 -0.538
TAS2R3 (GeneID 50831): #1 0.585
TMEM134 (GeneID 80194): #1 -0.237
DSCAM (GeneID 1826): #1 0.017
PTPN14 (GeneID 5784): #1 -0.221
PPP1R1B (GeneID 84152): #1 0.649
MRPS34 (GeneID 65993): #1 0.312
PLPPR4 (GeneID 9890): #1 0.0907

A stretch from the list above, for reference:
mean correlation with KSR1 profile, by gene knocked down and reagent
CSHL1 (GeneID 1444): #1 -0.736
KRT10 (GeneID 3858): #1 -0.29
PEMT (GeneID 10400): #1 -0.693
MS4A5 (GeneID 64232): #1 0.366
MYL2 (GeneID 4633): #1 -0.715
PPP2CB (GeneID 5516): #1 0.216
